Results are given in words; binding and its absence hold for the method and conditions named. Binding seen in cells or lysates may run through a third protein. Some binding calls cover weakened binding; strength is not graded here. For some assays here: Sequences can lack the tags named with a protein.

Protein sequences, listed by entry. Tags and fused reporters are not part of them.
UniProt P45974: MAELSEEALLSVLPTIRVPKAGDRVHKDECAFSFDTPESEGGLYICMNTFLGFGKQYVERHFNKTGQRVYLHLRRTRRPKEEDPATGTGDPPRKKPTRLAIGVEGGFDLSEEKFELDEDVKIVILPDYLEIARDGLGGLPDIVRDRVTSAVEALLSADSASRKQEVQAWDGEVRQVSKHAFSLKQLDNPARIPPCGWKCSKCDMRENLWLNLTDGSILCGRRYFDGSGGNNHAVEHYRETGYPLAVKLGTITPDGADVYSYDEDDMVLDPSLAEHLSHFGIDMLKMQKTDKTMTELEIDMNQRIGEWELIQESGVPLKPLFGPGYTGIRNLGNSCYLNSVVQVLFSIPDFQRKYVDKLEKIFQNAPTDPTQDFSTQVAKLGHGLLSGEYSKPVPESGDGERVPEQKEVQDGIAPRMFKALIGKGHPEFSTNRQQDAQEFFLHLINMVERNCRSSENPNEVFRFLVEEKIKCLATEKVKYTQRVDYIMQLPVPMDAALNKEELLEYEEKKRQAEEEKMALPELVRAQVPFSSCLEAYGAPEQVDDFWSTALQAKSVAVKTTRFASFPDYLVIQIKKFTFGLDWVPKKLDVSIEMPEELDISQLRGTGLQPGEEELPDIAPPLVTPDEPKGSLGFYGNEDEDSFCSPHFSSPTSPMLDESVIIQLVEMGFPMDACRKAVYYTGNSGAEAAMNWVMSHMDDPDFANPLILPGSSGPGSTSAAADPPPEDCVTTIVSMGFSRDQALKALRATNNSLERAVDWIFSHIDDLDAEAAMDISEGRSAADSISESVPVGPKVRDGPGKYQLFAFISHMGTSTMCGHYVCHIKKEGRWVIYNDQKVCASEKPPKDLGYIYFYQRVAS

The target in test [1] is T1, Flag-TXNIP (thioredoxin-interacting protein) (UniProt Q9H3M7).
T1 sequence: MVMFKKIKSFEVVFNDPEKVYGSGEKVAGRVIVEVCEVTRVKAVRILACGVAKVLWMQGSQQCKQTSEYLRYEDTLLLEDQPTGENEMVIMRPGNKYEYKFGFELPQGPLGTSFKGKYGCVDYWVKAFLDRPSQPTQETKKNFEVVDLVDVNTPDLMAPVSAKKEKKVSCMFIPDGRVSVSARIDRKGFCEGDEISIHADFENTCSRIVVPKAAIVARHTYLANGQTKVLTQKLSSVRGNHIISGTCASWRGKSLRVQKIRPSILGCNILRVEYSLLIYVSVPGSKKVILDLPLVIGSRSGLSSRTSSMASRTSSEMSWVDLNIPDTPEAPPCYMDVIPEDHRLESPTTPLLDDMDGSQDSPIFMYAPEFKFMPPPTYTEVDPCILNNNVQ
Put plainly: co-IP; Huh7 and HepG2 cells cotransfected with Flag-TXNIP and HA-USP5 for 48 hours; lysates incubated with anti-Flag (M2) or anti-HA beads at 4°C overnight, washed five times, western blotting.

Test [2] concerns the target T2, TXNIP (thioredoxin-interacting protein), endogenous (human (endogenous in Huh7 and HepG2)) (UniProt Q9H3M7).
T2 sequence: T1 sequence
Put plainly: co-IP; endogenous proteins; lysates of untransfected Huh7 and HepG2 cells incubated with anti-TXNIP or anti-USP5 antibody at 4°C overnight, western blotting. (In general: A western blot detects proteins with antibodies after separation by electrophoresis.)

Turning to “HA-USP5 (ubiquitin-specific protease 5) (from UniProt P45974 1-858) (enzyme)”, the binding result in test [1] was “binds”.
Take “USP5 (ubiquitin-specific protease 5), endogenous (from UniProt P45974 1-858) (enzyme)”: the binding entry in test [2] was “binds”.

For the origin of these results see PMC10553006.
